{
  "source": "patent US20230302021A1",
  "about": "“COMPOSITIONS AND METHODS FOR TREATING CASTRATION-RESISTANT PROSTATE CANCER” (Purdue Research Foundation, priority 2022, published 2023)",
  "origin": "cited, not measured here",
  "test_system": "22RV1 cells",
  "conditions": "including 22RV1 cells; cited from earlier work",
  "note": "At least one structure is not confirmed: it was looked up by name or label, or the drawing left a doubt.",
  "data": [
    {"smiles": "C[C@]12CC[C@H](O)CC1=CC[C@@H]1[C@@H]2CC[C@]2(C)C(c3cccnc3)=CC[C@@H]12", "note": "[abiraterone]", "values": [
      {"measurement": "resistance of ENZ-resistant cells to the drug", "result": "cross-resistant"}
    ]}
  ]
}
